PubChem BioAssay AID652243 – Drosophila RNAi Screening Center | 2013
In all, the deposit lists about 24,000 reagents; below is an unselected part of those that have a named target and a result. Over the whole deposit, 246 (1%) are marked active. 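Plates not normalised; calls are printed but the firefly/Renilla ratio behind them is not deposited; fold cut for lowering reported inconsistently.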 The raw values are shown without normalisation. Unmarked entries are inactive. A plus sign joins genes that one reagent is predicted to hit. Not stated in the record: the amount of reagent.

Screen: 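Fly genes required for human androgen receptor driven transcription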 (primary screen)
Cells: Drosophila S2R+ cells
Reagents: long dsRNA against Drosophila genes
Time to read-out: 72 h (48 h, then 24 h hormone)
Challenge: synthetic androgen R1881 at 10 nM for 24 h
Detection: 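Firefly light from an androgen-responsive reporter and Renilla control light per well, raw and unnormalised, for each of two replicates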
Scale: firefly reporter light: higher = more light from androgen-responsive reporter; Renilla control light: higher = more constitutive control signal (cell number, transfection)
Rule for the call: 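Across duplicate plates, a knock-down whose log firefly/Renilla ratio shifted a set fold down or up from the GFP/LacZ control mean was a hit; the downward cut appears as both 1.5 and 3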
Calls: active = hit: reporter lowered or raised; inactive = no hit

Pex19 [DRSC02839] | firefly reporter light, replicate 1: 7.76e5; firefly reporter light, replicate 2: 6.69e5; Renilla control light, replicate 1: 2.19e6; Renilla control light, replicate 2: 1.45e6
flip [DRSC12326] | firefly reporter light, replicate 1: 1.17e5; firefly reporter light, replicate 2: 96339; Renilla control light, replicate 1: 3.02e6; Renilla control light, replicate 2: 2.38e6
Ada2a + Polr2D [DRSC16206] | firefly reporter light, replicate 1: 38798; firefly reporter light, replicate 2: 51273; Renilla control light, replicate 1: 6.11e5; Renilla control light, replicate 2: 7.25e5
Ada2a + Polr2D [DRSC21598] | firefly reporter light, replicate 1: 1.19e6; firefly reporter light, replicate 2: 1.12e6; Renilla control light, replicate 1: 2.67e6; Renilla control light, replicate 2: 3.14e6
CG34225 [DRSC38879] | firefly reporter light, replicate 1: 6.65e5; firefly reporter light, replicate 2: 5.42e5; Renilla control light, replicate 1: 1.85e6; Renilla control light, replicate 2: 1.81e6
CG9106 [DRSC20154] | firefly reporter light, replicate 1: 76892; firefly reporter light, replicate 2: 72319; Renilla control light, replicate 1: 6.51e5; Renilla control light, replicate 2: 6.64e5
CG9106 [DRSC24212] | firefly reporter light, replicate 1: 5.47e5; firefly reporter light, replicate 2: 7.59e5; Renilla control light, replicate 1: 8.33e5; Renilla control light, replicate 2: 7.25e5
SKIP [DRSC14713] | firefly reporter light, replicate 1: 2.33e5; firefly reporter light, replicate 2: 2.40e5; Renilla control light, replicate 1: 3.93e6; Renilla control light, replicate 2: 3.53e6
SKIP [DRSC14714] | firefly reporter light, replicate 1: 2.57e5; firefly reporter light, replicate 2: 2.55e5; Renilla control light, replicate 1: 3.34e6; Renilla control light, replicate 2: 3.95e6
SKIP [DRSC15864] | firefly reporter light, replicate 1: 2.50e5; firefly reporter light, replicate 2: 2.38e5; Renilla control light, replicate 1: 3.33e6; Renilla control light, replicate 2: 3.28e6
SKIP [DRSC16195] | firefly reporter light, replicate 1: 5.49e5; firefly reporter light, replicate 2: 5.33e5; Renilla control light, replicate 1: 1.69e6; Renilla control light, replicate 2: 1.53e6
SKIP [DRSC16196] | firefly reporter light, replicate 1: 3.69e5; firefly reporter light, replicate 2: 3.08e5; Renilla control light, replicate 1: 3.13e6; Renilla control light, replicate 2: 2.28e6
CG17109 [DRSC15172] | firefly reporter light, replicate 1: 1.98e5; firefly reporter light, replicate 2: 2.58e5; Renilla control light, replicate 1: 3.01e6; Renilla control light, replicate 2: 3.39e6
CG17109 [DRSC26637] | firefly reporter light, replicate 1: 3.20e5; firefly reporter light, replicate 2: 3.24e5; Renilla control light, replicate 1: 3.81e5; Renilla control light, replicate 2: 5.32e5
tra2 [DRSC07708] | firefly reporter light, replicate 1: 9.71e5; firefly reporter light, replicate 2: 6.31e5; Renilla control light, replicate 1: 2.01e6; Renilla control light, replicate 2: 1.77e6
tra2 [DRSC29704] | firefly reporter light, replicate 1: 4.66e5; firefly reporter light, replicate 2: 3.62e5; Renilla control light, replicate 1: 1.24e6; Renilla control light, replicate 2: 1.53e6
MED23 + CG3700 [DRSC04406] | firefly reporter light, replicate 1: 2.98e5; firefly reporter light, replicate 2: 2.75e5; Renilla control light, replicate 1: 1.98e6; Renilla control light, replicate 2: 1.60e6
MED23 + CG3700 [DRSC04407] | firefly reporter light, replicate 1: 5.53e5; firefly reporter light, replicate 2: 6.24e5; Renilla control light, replicate 1: 1.23e6; Renilla control light, replicate 2: 1.30e6
MED23 + CG3700 [DRSC24669] | firefly reporter light, replicate 1: 3.07e5; firefly reporter light, replicate 2: 3.63e5; Renilla control light, replicate 1: 6.43e5; Renilla control light, replicate 2: 5.50e5
MED23 + CG3700 [DRSC25453] | firefly reporter light, replicate 1: 8.48e5; firefly reporter light, replicate 2: 7.56e5; Renilla control light, replicate 1: 1.04e6; Renilla control light, replicate 2: 1.22e6
sand [DRSC07245] | firefly reporter light, replicate 1: 2.16e5; firefly reporter light, replicate 2: 3.76e5; Renilla control light, replicate 1: 1.62e6; Renilla control light, replicate 2: 1.51e6
